± gives the standard deviation of the averaged measurements. The entries are a selection whose mix differs from that of the whole data set.
Compound: Nc1ncnc2c1ncn2[C@@H]1O[C@H](COP(=O)(O)OP(=O)(O)NP(=O)(O)O)[C@@H](O)[C@H]1O [adenylyl imidodiphosphate]
Assay: NP40-soluble protein abundance relative to vehicle (solubility fold change) (ratio); higher = more soluble protein in presence of AMP-PNP
In short: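 Jurkat crude lysate (Dounce-homogenised) was treated with eight concentrations from 0.1 to 10 mM for 10 min at room temperature, then 3 min at 37 °C. It was solubilised with 0.8% NP40 and benzonase (60 min, 4 °C) and ultracentrifuged, and the supernatant was TMT-labelled for LC-MS/MS. Intensities were vsn-normalised, and the value is the fold change against the NP40-processed vehicle per replicate, from three independent experiments.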

Protein sequences, listed by entry. Tags and fused reporters are not part of them. Lines headed by an entry give the natural chain unless they say otherwise; changes in a name come on top.
UniProt P84022, whole entry, looked up: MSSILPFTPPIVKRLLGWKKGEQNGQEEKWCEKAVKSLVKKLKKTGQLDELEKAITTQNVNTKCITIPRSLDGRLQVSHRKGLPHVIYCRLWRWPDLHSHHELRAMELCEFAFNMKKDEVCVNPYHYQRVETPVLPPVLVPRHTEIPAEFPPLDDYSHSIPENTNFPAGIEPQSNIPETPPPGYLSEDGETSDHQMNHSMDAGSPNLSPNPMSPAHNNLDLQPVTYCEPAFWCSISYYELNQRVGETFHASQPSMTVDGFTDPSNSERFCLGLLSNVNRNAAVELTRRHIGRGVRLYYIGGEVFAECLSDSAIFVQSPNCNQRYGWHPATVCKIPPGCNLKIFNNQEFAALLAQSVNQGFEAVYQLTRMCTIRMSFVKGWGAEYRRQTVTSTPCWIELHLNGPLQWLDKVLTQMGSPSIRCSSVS
UniProt Q03154: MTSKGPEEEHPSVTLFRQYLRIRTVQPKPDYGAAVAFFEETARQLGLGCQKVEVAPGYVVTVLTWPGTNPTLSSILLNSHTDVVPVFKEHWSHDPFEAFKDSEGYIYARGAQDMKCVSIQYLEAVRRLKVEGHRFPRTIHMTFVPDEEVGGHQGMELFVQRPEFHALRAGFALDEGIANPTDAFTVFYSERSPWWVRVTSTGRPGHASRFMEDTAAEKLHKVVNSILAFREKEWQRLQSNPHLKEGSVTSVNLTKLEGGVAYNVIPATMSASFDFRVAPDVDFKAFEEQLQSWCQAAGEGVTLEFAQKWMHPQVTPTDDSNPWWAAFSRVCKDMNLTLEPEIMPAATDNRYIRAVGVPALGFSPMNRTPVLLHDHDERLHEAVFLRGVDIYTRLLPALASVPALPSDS
UniProt P83876: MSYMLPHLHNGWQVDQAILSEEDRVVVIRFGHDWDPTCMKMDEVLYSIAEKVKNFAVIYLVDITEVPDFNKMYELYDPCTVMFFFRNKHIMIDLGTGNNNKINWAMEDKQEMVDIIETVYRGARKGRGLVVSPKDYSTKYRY
UniProt P56182: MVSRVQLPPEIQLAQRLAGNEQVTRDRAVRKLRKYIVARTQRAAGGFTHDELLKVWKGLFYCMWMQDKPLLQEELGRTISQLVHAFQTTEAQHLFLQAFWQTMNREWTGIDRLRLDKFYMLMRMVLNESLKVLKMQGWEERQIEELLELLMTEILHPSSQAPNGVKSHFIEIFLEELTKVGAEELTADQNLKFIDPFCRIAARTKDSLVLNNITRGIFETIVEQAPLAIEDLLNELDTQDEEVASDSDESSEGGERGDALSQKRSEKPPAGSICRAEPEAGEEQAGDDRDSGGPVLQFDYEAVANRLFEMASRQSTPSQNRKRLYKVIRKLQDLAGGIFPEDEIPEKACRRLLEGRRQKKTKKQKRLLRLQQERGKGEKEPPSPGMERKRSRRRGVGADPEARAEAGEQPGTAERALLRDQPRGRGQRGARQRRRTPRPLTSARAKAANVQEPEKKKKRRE
UniProt P84085: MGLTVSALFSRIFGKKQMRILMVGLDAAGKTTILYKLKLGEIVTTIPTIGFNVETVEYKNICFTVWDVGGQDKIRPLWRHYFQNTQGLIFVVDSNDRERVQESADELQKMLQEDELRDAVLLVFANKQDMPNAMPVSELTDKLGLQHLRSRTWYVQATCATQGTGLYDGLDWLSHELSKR
UniProt Q04837: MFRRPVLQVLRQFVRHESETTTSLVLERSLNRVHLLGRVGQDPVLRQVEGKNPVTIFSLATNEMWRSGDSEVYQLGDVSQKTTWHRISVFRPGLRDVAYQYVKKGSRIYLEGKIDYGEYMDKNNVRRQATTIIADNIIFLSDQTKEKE
UniProt P55795: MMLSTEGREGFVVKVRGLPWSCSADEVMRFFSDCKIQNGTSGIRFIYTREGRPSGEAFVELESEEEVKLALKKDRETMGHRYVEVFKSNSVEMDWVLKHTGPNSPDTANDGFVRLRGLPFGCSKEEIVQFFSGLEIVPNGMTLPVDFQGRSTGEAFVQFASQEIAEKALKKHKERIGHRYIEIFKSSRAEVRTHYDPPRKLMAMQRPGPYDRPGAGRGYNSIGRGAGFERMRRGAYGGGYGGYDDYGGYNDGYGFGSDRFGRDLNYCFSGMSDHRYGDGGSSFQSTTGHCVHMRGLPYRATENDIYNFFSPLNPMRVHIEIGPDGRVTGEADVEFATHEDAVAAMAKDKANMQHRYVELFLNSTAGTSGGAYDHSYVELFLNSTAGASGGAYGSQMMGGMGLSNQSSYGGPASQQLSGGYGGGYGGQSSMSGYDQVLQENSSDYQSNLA
UniProt Q00013: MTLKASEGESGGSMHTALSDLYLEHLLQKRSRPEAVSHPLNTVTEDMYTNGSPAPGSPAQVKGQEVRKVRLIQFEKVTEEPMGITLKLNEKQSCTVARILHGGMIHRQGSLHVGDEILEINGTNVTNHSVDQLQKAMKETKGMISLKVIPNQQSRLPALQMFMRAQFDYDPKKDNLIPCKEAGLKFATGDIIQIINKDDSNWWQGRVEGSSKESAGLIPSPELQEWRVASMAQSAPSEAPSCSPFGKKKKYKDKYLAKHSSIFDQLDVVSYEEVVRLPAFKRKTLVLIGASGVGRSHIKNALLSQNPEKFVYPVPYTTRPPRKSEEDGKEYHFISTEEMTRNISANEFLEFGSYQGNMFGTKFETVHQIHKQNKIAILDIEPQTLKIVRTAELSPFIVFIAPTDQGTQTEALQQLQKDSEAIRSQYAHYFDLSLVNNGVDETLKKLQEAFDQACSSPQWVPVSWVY
UniProt P62877, whole entry, looked up: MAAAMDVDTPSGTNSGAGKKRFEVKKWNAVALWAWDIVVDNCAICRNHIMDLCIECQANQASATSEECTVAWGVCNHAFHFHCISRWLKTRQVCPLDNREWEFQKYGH
UniProt P62380: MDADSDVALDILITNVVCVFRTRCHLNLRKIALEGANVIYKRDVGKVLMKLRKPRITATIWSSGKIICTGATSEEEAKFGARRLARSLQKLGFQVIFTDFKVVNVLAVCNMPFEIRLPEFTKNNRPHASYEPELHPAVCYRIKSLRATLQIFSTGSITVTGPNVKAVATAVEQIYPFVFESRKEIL
UniProt Q00536: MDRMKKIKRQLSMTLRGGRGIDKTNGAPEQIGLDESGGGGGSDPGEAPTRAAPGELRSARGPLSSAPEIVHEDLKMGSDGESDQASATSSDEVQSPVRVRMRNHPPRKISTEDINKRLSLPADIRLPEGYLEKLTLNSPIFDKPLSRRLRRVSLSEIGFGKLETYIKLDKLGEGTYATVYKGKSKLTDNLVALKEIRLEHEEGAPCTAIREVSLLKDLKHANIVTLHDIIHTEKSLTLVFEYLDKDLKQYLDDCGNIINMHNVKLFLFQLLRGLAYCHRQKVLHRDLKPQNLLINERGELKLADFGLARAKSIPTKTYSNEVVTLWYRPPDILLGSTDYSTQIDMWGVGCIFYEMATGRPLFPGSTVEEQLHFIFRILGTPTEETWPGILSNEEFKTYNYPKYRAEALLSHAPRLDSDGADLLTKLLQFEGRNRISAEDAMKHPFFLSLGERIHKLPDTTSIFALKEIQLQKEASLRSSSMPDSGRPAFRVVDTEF
UniProt P61019: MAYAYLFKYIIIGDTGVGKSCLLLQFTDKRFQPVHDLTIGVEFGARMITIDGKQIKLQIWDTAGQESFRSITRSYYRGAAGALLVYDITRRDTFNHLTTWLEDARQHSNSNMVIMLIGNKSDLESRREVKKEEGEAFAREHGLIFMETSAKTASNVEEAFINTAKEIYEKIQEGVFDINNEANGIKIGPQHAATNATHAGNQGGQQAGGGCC
UniProt P67809, whole entry: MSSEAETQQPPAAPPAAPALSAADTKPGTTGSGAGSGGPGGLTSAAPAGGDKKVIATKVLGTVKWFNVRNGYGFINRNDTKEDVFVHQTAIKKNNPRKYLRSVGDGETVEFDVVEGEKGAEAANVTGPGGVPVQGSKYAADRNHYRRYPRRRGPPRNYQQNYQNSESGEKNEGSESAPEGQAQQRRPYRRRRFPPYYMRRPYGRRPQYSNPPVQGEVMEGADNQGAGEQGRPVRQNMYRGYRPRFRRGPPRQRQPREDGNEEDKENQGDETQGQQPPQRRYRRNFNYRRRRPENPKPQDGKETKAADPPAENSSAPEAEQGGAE
UniProt P78347: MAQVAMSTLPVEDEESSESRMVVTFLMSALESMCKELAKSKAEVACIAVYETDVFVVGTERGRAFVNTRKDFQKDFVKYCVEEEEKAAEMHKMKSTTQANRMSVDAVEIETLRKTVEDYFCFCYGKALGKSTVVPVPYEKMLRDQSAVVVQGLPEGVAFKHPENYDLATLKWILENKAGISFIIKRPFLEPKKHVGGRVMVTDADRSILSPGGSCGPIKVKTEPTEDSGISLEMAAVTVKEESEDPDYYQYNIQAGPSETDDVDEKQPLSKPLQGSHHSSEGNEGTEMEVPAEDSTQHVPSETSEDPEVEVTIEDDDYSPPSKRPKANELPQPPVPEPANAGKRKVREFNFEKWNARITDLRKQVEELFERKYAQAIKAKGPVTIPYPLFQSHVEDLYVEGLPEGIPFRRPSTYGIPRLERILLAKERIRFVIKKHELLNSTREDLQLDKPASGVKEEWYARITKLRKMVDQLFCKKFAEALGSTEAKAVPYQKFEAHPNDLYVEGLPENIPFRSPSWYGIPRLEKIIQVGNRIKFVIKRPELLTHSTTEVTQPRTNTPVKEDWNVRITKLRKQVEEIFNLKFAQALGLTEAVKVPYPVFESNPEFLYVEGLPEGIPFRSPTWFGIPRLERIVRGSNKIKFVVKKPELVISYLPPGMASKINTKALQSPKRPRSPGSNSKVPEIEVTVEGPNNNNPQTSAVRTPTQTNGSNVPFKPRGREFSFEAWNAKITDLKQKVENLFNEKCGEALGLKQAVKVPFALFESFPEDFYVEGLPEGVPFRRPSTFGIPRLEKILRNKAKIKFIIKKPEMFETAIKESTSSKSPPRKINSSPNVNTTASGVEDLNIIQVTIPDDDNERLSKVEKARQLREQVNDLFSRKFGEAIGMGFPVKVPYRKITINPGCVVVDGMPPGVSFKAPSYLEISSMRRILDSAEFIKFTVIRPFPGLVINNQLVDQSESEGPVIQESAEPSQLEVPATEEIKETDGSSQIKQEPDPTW
UniProt Q00169: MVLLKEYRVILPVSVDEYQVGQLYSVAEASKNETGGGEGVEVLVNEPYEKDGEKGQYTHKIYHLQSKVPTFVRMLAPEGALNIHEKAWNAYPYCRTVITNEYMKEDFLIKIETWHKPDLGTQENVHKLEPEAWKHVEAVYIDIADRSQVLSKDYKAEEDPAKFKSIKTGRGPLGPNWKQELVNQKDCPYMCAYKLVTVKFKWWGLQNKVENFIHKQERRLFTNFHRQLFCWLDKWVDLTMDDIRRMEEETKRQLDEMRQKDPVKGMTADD
UniProt P62253: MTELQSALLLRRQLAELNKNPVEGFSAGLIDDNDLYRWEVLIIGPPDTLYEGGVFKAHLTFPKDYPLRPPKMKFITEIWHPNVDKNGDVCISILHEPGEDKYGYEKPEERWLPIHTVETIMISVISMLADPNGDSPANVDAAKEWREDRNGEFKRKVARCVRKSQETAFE
UniProt P60900, whole entry: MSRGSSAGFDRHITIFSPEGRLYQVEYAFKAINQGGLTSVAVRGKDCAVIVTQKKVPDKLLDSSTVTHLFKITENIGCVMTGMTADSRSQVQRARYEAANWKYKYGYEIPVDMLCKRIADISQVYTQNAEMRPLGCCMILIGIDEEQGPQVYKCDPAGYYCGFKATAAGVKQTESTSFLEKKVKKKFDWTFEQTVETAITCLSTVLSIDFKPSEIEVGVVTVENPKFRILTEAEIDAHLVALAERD
UniProt Q00059: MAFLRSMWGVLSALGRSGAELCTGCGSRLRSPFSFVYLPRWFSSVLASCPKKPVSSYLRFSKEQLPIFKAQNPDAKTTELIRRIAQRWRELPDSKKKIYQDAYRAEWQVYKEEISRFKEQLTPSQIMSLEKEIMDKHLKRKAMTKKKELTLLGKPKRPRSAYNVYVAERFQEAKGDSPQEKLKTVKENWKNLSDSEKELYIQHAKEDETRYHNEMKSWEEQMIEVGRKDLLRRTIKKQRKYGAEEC
UniProt P68036, whole entry: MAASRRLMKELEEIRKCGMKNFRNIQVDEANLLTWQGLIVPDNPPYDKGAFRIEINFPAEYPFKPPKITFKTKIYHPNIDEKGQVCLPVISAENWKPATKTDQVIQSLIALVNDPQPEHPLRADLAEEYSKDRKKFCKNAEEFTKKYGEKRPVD
UniProt P82970: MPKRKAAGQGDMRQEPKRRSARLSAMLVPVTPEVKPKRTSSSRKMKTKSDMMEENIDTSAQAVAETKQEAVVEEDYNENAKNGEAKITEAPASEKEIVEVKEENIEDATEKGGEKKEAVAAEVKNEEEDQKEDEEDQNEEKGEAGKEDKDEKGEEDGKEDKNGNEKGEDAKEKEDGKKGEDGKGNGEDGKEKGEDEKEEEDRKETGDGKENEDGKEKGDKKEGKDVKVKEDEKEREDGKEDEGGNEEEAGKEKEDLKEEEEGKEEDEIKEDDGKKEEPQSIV
UniProt P60981: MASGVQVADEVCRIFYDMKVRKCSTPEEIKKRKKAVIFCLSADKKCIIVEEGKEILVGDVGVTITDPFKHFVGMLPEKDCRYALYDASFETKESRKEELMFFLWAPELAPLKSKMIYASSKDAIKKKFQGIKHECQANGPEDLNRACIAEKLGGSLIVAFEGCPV

Target	NP40-soluble protein abundance (concentration: 1mM)	NP40-soluble protein abundance (concentration: 2mM)	NP40-soluble protein abundance (concentration: 4mM)	NP40-soluble protein abundance (concentration: 6mM)	NP40-soluble protein abundance (concentration: 8mM)	NP40-soluble protein abundance (concentration: 10mM)
UniProt P62851	1.01 ± 0.053	1.04 ± 0.051	0.961 ± 0.04	0.9841 ± 0.0092	0.792 ± 0.038	1.07 ± 0.063
UniProt P84022	0.996 ± 0.022	1.04 ± 0.037	1.03 ± 0.029	1.09 ± 0.026	1.05 ± 0.021	1.04 ± 0.055
UniProt P61964	1.002 ± 0.0068	1.03 ± 0.017	1.028 ± 0.0054	1.07 ± 0.04	1.1 ± 0.039	1.12 ± 0.05
ACY1 (UniProt Q03154)	1.01 ± 0.024	0.961 ± 0.06	1.01 ± 0.018	0.969 ± 0.02	1.002 ± 0.0056	0.975 ± 0.033
UniProt P83876	1.02 ± 0.031	0.969 ± 0.019	0.964 ± 0.023	1.02 ± 0.032	1.01 ± 0.016	1.02 ± 0.013
RRP1 (UniProt P56182)	1.023 ± 0.0035	1.07 ± 0.11	1.04 ± 0.027	1.03 ± 0.041	1.01 ± 0.018	1.05 ± 0.053
PPP1CA (UniProt P62136)	1.017 ± 0.0096	0.963 ± 0.08	0.986 ± 0.041	0.9945 ± 0.0053	0.994 ± 0.049	0.976 ± 0.044
UniProt Q01432-5	0.991 ± 0.012	1.01 ± 0.014	1.02 ± 0.021	1 ± 0.03	0.9839 ± 0.0084	0.99 ± 0.04
UniProt P84085	0.966 ± 0.024	0.905 ± 0.067	0.943 ± 0.025	0.962 ± 0.039	0.9679 ± 0.0089	0.94 ± 0.018
UniProt P62854	1 ± 0.035	0.978 ± 0.04	1 ± 0.038	0.949 ± 0.038	0.944 ± 0.012	0.9902 ± 0.0089
UniProt P78527	0.9898 ± 0.0037	0.885 ± 0.13	0.966 ± 0.08	0.954 ± 0.048	1.01 ± 0.096	0.935 ± 0.12
UniProt P62829	1.01 ± 0.0053	0.9597 ± 0.0018	0.9382 ± 0.003	0.927 ± 0.023	0.895 ± 0.016	0.974 ± 0.005
UniProt Q08209 and related entries	1.06 ± 0.025	1.04 ± 0.034	1.03 ± 0.033	0.999 ± 0.043	0.967 ± 0.034	0.986 ± 0.045
UniProt P62487	1.1 ± 0.072	1.14 ± 0.053	1.07 ± 0.03	1.07 ± 0.093	1.01 ± 0.053	1.09 ± 0.1
SSBP1 (UniProt Q04837)	0.929 ± 0.073	0.918 ± 0.043	0.942 ± 0.088	1.11 ± 0.15	1.12 ± 0.059	1.14 ± 0.1
UniProt P62805	0.903 ± 0.073	0.951 ± 0.018	0.964 ± 0.046	1.12 ± 0.18	1.25 ± 0.16	1.52 ± 0.25
HNRNPH2 (UniProt P55795)	0.9889 ± 0.0045	0.934 ± 0.086	0.946 ± 0.028	0.947 ± 0.023	0.9566 ± 0.0082	0.908 ± 0.019
PEX3 (UniProt P56589)	1 ± 0.039	0.998 ± 0.028	0.994 ± 0.029	0.9633 ± 0.009	0.975 ± 0.032	0.985 ± 0.015
UniProt P83916	1.05 ± 0.018	1.08 ± 0.03	1.02 ± 0.013	1.03 ± 0.014	1.05 ± 0.028	1.05 ± 0.027
UniProt P62312	0.949 ± 0.039	0.997 ± 0.066	0.995 ± 0.1	1.1 ± 0.11	1.11 ± 0.061	1.13 ± 0.086

Target	NP40-soluble protein abundance (concentration: 1mM)	NP40-soluble protein abundance (concentration: 2mM)	NP40-soluble protein abundance (concentration: 4mM)	NP40-soluble protein abundance (concentration: 6mM)	NP40-soluble protein abundance (concentration: 8mM)	NP40-soluble protein abundance (concentration: 10mM)
UniProt P61978-2|P61978-3	1.02 ± 0.03	1.06 ± 0.019	1.018 ± 0.0014	1.05 ± 0.016	1.02 ± 0.026	1.05 ± 0.044
MPP1 (UniProt Q00013)	1.01 ± 0.015	0.964 ± 0.035	1.01 ± 0.028	0.978 ± 0.028	1.01 ± 0.048	0.986 ± 0.034
RPL6 (UniProt Q02878)	0.998 ± 0.12	0.948 ± 0.071	0.895 ± 0.12	0.854 ± 0.12	0.794 ± 0.13	0.874 ± 0.2
UniProt P62877	0.968 ± 0.042	0.99 ± 0.043	0.972 ± 0.069	1.02 ± 0.065	1.01 ± 0.035	1.03 ± 0.075
UniProt P62995 and related entries	1.02 ± 0.096	1.04 ± 0.038	1.02 ± 0.11	0.993 ± 0.12	0.95 ± 0.088	1.01 ± 0.18
UniProt P63272	0.973 ± 0.013	0.982 ± 0.029	0.981 ± 0.029	1.02 ± 0.037	1.02 ± 0.012	1.01 ± 0.044
UniProt P80217 and related entries	1 ± 0.033	1.02 ± 0.026	0.989 ± 0.023	0.983 ± 0.066	0.945 ± 0.037	1 ± 0.046
TBPL1 (UniProt P62380)	0.955 ± 0.031	0.932 ± 0.045	0.963 ± 0.021	0.995 ± 0.071	1.01 ± 0.059	0.989 ± 0.038
UniProt P55809 and related entries	1.06 ± 0.016	1.03 ± 0.017	1.04 ± 0.023	1.02 ± 0.027	1.02 ± 0.038	1.01 ± 0.04
UniProt Q00536 and related entries	0.91 ± 0.027	0.965 ± 0.023	0.909 ± 0.033	0.977 ± 0.052	0.941 ± 0.049	0.931 ± 0.067
CDK6 (UniProt Q00534)	0.987 ± 0.029	0.951 ± 0.022	0.959 ± 0.03	0.967 ± 0.012	0.945 ± 0.033	0.91 ± 0.029
UniProt P55771	0.998 ± 0.028	1.01 ± 0.088	0.979 ± 0.022	0.998 ± 0.032	1 ± 0.022	1.01 ± 0.022
RAB2A (UniProt P61019)	1 ± 0.011	0.926 ± 0.11	0.957 ± 0.013	0.993 ± 0.041	1.01 ± 0.051	0.962 ± 0.053
PAFAH1B2 (UniProt P68402)	0.939 ± 0.035	0.958 ± 0.051	0.944 ± 0.064	1.04 ± 0.14	1 ± 0.17	1.05 ± 0.2
RHOA (UniProt P61586)	1.08 ± 0.025	1.12 ± 0.14	1.04 ± 0.051	1.01 ± 0.048	0.96 ± 0.01	1.05 ± 0.049
REEP5 (UniProt Q00765)	1.02 ± 0.034	1.04 ± 0.032	0.954 ± 0.043	0.99 ± 0.051	0.968 ± 0.046	0.969 ± 0.076
MRPS15 (UniProt P82914)	0.976 ± 0.027	1.01 ± 0.042	0.968 ± 0.085	0.995 ± 0.091	0.976 ± 0.12	0.983 ± 0.14
UniProt P78356	0.989 ± 0.04	1.02 ± 0.025	1.01 ± 0.012	1.04 ± 0.012	1.04 ± 0.019	1.09 ± 0.051
LMO4 (UniProt P61968)	0.977 ± 0.034	1.03 ± 0.09	1 ± 0.058	1.06 ± 0.052	1.05 ± 0.039	1.08 ± 0.031
UniProt P78563 and related entries	1.02 ± 0.043	1.02 ± 0.026	1.04 ± 0.026	1.039 ± 0.0092	1.04 ± 0.017	1.08 ± 0.029

Target	NP40-soluble protein abundance (concentration: 1mM)	NP40-soluble protein abundance (concentration: 2mM)	NP40-soluble protein abundance (concentration: 4mM)	NP40-soluble protein abundance (concentration: 6mM)	NP40-soluble protein abundance (concentration: 8mM)	NP40-soluble protein abundance (concentration: 10mM)
UniProt P63167	1.01 ± 0.026	1.04 ± 0.052	0.958 ± 0.044	0.97 ± 0.019	0.995 ± 0.041	0.95878 ± 0.00021
UniProt P62820	1 ± 0.064	1 ± 0.045	0.97 ± 0.072	0.967 ± 0.02	0.943 ± 0.049	0.958 ± 0.074
YBX1 (UniProt P67809)	0.986 ± 0.088	1.22 ± 0.36	1.07 ± 0.12	1.23 ± 0.072	1.21 ± 0.031	1.34 ± 0.067
UniProt P78347 and related entries	1.02 ± 0.025	1.03 ± 0.03	1.06 ± 0.029	1.13 ± 0.043	1.12 ± 0.025	1.17 ± 0.036
UniProt P62241 and related entries	0.942 ± 0.068	0.883 ± 0.062	0.871 ± 0.12	0.873 ± 0.12	0.778 ± 0.06	0.836 ± 0.14
PITPNA (UniProt Q00169)	0.9785 ± 0.0089	0.941 ± 0.056	0.9348 ± 0.0059	0.9615 ± 0.0058	0.9372 ± 0.009	0.953 ± 0.032
UniProt Q05655	1.02 ± 0.025	0.979 ± 0.024	1.02 ± 0.013	1.04 ± 0.022	1.034 ± 0.002	1.065 ± 0.002
MRPS5 (UniProt P82675)	0.962 ± 0.077	0.948 ± 0.087	0.943 ± 0.13	0.914 ± 0.14	0.915 ± 0.13	0.936 ± 0.2
UniProt P62253	0.995 ± 0.021	0.982 ± 0.02	0.979 ± 0.01	0.956 ± 0.023	0.938 ± 0.014	0.924 ± 0.027
UniProt P84090	1 ± 0.027	1.05 ± 0.014	1.05 ± 0.029	1.11 ± 0.023	1.15 ± 0.066	1.18 ± 0.065
UniProt P62310	1.02 ± 0.04	1.02 ± 0.059	0.974 ± 0.015	0.959 ± 0.051	0.943 ± 0.042	0.927 ± 0.032
MLLT1 (UniProt Q03111)	1.06 ± 0.057	1.11 ± 0.089	1.09 ± 0.054	1.09 ± 0.039	1.06 ± 0.055	1.1 ± 0.063
UniProt P60900 and related entries	0.914 ± 0.025	0.867 ± 0.069	0.875 ± 0.07	0.95 ± 0.057	0.953 ± 0.082	0.953 ± 0.12
TFAM (UniProt Q00059)	0.934 ± 0.12	1.01 ± 0.065	0.893 ± 0.11	0.925 ± 0.12	0.96 ± 0.022	0.908 ± 0.086
UniProt P62917	1.04 ± 0.076	1.03 ± 0.043	0.99 ± 0.078	0.975 ± 0.075	0.835 ± 0.077	1.06 ± 0.16
UniProt P68036 and related entries	0.972 ± 0.07	1 ± 0.018	0.911 ± 0.083	0.979 ± 0.082	0.962 ± 0.047	0.932 ± 0.12
UniProt P82970	0.98 ± 0.036	1.08 ± 0.11	0.933 ± 0.045	0.958 ± 0.026	0.892 ± 0.042	0.92 ± 0.083
DSTN (UniProt P60981)	0.9927 ± 0.0091	1 ± 0.032	0.986 ± 0.026	1.05 ± 0.076	1.06 ± 0.05	1.05 ± 0.06
UniProt P63220 and related entries	0.961 ± 0.06	0.995 ± 0.068	0.886 ± 0.086	0.882 ± 0.1	0.79 ± 0.056	0.851 ± 0.12
UniProt P62899	0.996 ± 0.094	0.981 ± 0.05	0.968 ± 0.098	0.974 ± 0.037	0.907 ± 0.045	1.04 ± 0.1

From the supplement of paper PMC6411743
